Tested on: ApoE knockout mice
Assay: Serum lipids in hyperlipidemia ApoE knockout mice on high fat diet
Assay type: in vivo
Conditions: positive control 3 mg/kg/day intragastric, 4 weeks, vs model group
Procedure: Fifteen C57BL/6J mice (male, 6-8 weeks) and seventy-five ApoE knockout mice (male, 6-8 weeks) were used for experiments. C57BL/6J mice were fed with normal diet, and ApoE knockout mice were fed for 1 week with a diet of normal/high fat diet ratio of 1/1.
Mice were weighed before administered drugs every week, where the dosage of the drug for mice is calculate according to the weight; and housed under 24±1° C. room temperature and 55±5% air humidity condition, and allowed enough food and water ad libitum. After the drug administration continuously for 4 weeks, the mice were anesthetized with pentobarbital sodium according to body weight. Blood (0.5 ml per mouse) was drawn from the inner canthus vein for hematology analysis. Hematology analysis: blood samples were let for standing for 2 h and centrifuged (3000 rpm, 10 min, 4° C.) to obtain serum. The total cholesterol (TC), triacylglycerol (TG) and low-density cholesterol (LDL-C) levels in the serum samples were assessed using automatic biochemical analyzer. Statistical analysis: GraphPad Prism 5 software was used to analyze and draw figure. Results were expressed as the mean±standard (mean±SD), and statistical analysis was performed by one-way analysis of variance (ANOVA) or student's t test. A difference with P<0.05 was considered statistically significant. […]

Structure (SMILES): CC(C)c1c(C(=O)Nc2ccccc2)c(-c2ccccc2)c(-c2ccc(F)cc2)n1CC[C@@H](O)C[C@@H](O)CC(=O)O [Atorvastatin, reference compound]
- serum low-density cholesterol (LDL-C): reduced
